For this assay, the target named is androgen receptor ligand binding domain (AR LBD) bound with DHT (chimp construct; LBD sequence stated identical to human). The experiment in a line: co-crystallization; crystal diffracted to 1.66 A.

Results are given in words; binding and its absence hold for the method and conditions named. A result given as binding can be weak or reduced; the word gives no strength.

Turning to KHKILHRLLQDSS [GRIP1 NR Box 2 peptide], the binding result is on record as “binds”.

The values above are taken from US20050202440A1.
